Assay [1] has as its target poly(C)binding protein 1 (PCBP1), endogenous in human lymphoblastoid cell lines (human (endogenous in patient-derived lymphoblastoid cell lines)) (UniProt Q15365). As to the kind of experiment: co-IP; patient- and control-derived lymphoblastoid cell lines; pull-down directed against endogenous PCBP1 (antibody, protein G beads with Sepharose 6B), blot for endogenous HSPB1; IgG as negative control; lysis and wash buffer 0.5% Nonidet P-40 in PBS salts; overnight at 4 °C.

The chains behind the UniProt entries cited, without tags or fusion partners. Where a name states a change or a piece, a line headed by the entry shows the natural chain unless it says otherwise.
UniProt Q15365: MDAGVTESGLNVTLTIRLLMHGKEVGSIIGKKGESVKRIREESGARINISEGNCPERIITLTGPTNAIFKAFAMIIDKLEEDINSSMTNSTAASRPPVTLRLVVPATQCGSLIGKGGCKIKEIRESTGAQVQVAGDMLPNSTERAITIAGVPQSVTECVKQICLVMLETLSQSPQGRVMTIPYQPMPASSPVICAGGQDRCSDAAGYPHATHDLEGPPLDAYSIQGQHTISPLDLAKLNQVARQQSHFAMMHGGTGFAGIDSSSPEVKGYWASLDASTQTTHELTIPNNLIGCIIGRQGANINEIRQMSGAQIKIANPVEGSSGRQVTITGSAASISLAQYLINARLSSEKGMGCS
UniProt P60335: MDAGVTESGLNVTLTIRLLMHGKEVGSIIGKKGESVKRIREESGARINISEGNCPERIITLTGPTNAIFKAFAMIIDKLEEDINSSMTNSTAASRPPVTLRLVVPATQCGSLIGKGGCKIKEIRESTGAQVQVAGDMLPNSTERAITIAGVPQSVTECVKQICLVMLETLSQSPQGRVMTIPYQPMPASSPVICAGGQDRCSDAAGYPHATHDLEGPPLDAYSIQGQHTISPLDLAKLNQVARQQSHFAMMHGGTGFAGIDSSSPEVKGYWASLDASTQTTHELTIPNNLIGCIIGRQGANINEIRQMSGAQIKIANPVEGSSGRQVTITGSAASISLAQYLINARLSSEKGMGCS
UniProt P04792: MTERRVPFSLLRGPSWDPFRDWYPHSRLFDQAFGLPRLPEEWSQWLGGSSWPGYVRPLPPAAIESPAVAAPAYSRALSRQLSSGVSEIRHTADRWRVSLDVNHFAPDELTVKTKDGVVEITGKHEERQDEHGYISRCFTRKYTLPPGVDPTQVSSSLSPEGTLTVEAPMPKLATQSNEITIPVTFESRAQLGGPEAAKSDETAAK

Assay [2] addresses PCBP1, endogenous in mouse NSC-34 motorneuron-like cells (mouse (endogenous in NSC-34)) (UniProt P60335). As to the kind of experiment: co-IP; NSC-34 cells stably transduced with HSPB1 wild type and mutants; pull-down directed against endogenous PCBP1, blot for exogenous HSPB1.

Results are given in words; binding and its absence hold for the method and conditions named. Binding seen in cells or lysates may run through a third protein. Some results given as binding are weak or reduced against the parent protein; the word gives no strength.

On to “HSPB1-P182L, endogenous in the lymphoblastoid cell line of a dHMN patient (from UniProt P04792 1-205)”, for which, in assay [1], the binding result is on record as “binds”.
With “HSPB1-P182L, exogenous, in stably transduced NSC-34 cells (from UniProt P04792 1-205)”, the binding entry in assay [2] was “binds”.
For “HSPB1-R127W, endogenous in the lymphoblastoid cell line of a patient (from UniProt P04792 1-205)”, the binding result in assay [1] is recorded as “no binding”.

The values are drawn from PMC5225548.
